Measured values from the supplement of paper PMC10849652.
The other results are listed elsewhere or left out. Residues, ends and D or L forms follow the SMILES beside them. *: point of attachment. Cbz = O=C(OCc1ccccc1)*

Protein sequences, listed by entry. Tags and fused reporters are not part of them. Lines headed by an entry give the natural chain unless they say otherwise; changes in a name come on top.
UniProt Q9P0B6: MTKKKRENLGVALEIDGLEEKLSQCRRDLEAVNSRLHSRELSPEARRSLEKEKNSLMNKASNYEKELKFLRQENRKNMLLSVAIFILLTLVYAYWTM
UniProt Q07108: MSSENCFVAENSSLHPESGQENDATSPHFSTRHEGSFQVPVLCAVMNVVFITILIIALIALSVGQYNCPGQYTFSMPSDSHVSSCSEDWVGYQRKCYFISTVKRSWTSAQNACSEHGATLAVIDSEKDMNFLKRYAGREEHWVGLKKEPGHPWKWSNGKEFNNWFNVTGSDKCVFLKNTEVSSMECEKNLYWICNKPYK
UniProt P21926: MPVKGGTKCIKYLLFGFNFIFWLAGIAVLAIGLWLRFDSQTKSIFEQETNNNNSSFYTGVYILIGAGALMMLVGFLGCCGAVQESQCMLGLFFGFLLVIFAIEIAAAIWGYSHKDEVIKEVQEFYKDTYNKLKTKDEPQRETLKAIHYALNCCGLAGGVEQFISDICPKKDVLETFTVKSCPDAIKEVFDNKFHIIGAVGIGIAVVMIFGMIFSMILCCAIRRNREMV
UniProt Q9UK58: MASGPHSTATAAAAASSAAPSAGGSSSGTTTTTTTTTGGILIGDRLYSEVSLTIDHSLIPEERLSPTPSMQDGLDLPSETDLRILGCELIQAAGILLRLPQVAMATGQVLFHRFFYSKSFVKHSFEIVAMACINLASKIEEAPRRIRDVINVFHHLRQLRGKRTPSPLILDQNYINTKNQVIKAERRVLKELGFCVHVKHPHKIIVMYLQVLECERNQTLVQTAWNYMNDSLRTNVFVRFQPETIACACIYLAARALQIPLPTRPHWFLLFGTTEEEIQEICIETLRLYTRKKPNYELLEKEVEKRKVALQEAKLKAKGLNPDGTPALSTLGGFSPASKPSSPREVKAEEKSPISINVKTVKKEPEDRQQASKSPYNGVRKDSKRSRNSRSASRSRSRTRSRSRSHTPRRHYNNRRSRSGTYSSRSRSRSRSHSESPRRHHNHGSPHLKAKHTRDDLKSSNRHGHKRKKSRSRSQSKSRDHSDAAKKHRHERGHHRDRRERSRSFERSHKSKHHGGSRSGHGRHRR
UniProt P34810: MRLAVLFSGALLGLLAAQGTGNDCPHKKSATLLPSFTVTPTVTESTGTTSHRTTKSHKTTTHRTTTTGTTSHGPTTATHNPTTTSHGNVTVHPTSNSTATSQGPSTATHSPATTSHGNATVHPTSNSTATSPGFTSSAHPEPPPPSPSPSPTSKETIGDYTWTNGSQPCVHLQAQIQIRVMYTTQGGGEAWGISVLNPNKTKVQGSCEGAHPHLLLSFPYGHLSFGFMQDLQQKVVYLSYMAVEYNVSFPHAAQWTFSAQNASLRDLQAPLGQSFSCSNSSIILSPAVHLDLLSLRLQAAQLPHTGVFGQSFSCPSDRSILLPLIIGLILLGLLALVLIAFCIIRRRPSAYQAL
UniProt Q9BWV3: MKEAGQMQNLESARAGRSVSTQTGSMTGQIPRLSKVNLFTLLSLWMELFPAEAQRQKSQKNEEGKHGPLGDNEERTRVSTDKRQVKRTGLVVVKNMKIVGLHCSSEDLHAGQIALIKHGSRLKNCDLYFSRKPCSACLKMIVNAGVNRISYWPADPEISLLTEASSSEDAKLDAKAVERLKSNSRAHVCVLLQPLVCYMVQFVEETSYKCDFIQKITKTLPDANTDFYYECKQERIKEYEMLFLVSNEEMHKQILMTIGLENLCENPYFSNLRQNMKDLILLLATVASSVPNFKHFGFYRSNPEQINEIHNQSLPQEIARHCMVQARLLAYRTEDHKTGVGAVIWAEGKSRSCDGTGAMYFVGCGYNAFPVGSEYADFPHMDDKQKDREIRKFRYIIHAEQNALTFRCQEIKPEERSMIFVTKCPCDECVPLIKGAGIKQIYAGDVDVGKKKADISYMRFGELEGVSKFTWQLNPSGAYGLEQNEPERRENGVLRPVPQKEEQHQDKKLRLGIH
UniProt P55211: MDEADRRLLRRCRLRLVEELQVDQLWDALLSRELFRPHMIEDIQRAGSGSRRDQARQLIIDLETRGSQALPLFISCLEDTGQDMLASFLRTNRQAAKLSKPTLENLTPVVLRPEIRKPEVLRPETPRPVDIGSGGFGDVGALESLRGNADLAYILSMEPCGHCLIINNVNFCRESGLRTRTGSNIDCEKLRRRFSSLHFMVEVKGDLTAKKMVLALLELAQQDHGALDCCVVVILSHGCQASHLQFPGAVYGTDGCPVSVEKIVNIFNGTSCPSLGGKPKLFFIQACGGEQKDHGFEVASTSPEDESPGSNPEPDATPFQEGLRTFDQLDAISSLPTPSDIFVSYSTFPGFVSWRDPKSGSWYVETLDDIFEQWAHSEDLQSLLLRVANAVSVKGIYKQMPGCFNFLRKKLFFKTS
UniProt P33681, whole entry, looked up: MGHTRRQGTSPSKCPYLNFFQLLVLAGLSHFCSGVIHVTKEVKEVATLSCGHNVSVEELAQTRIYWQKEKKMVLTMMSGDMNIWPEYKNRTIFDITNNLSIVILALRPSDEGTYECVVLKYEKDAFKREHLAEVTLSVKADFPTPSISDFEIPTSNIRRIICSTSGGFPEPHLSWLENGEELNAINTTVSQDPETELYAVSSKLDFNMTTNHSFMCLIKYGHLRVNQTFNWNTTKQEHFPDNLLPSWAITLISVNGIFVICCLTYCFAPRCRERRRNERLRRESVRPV
UniProt Q92526, whole entry, looked up: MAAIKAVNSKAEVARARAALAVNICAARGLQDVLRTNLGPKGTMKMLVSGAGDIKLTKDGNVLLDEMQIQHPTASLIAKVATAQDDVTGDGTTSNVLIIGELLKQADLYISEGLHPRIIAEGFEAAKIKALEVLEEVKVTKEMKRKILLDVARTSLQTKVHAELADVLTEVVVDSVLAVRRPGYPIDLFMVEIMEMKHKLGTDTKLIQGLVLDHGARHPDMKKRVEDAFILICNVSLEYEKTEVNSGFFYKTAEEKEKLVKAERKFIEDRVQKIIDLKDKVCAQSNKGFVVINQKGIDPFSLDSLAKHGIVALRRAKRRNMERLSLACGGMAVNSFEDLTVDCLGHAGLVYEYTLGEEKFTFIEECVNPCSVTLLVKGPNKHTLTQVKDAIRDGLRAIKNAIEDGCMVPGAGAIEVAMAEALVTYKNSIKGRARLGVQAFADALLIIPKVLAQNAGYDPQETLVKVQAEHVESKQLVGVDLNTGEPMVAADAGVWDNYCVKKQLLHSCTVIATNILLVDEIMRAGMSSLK
UniProt O95400: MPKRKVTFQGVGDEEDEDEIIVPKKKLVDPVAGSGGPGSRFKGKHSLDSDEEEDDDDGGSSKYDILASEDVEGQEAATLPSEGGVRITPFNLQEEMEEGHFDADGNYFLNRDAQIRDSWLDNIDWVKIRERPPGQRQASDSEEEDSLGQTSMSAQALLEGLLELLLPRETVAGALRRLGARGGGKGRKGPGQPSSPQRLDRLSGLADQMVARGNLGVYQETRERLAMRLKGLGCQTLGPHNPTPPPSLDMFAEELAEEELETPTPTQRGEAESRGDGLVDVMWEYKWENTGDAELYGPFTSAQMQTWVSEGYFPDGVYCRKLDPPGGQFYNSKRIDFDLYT
UniProt Q8N9Z2: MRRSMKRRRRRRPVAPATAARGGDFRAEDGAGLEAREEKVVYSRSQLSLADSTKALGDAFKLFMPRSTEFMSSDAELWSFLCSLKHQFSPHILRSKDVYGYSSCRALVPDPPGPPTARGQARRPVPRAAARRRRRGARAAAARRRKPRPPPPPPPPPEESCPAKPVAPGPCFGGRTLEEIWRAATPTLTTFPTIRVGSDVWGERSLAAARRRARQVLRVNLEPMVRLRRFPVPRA
UniProt P30304: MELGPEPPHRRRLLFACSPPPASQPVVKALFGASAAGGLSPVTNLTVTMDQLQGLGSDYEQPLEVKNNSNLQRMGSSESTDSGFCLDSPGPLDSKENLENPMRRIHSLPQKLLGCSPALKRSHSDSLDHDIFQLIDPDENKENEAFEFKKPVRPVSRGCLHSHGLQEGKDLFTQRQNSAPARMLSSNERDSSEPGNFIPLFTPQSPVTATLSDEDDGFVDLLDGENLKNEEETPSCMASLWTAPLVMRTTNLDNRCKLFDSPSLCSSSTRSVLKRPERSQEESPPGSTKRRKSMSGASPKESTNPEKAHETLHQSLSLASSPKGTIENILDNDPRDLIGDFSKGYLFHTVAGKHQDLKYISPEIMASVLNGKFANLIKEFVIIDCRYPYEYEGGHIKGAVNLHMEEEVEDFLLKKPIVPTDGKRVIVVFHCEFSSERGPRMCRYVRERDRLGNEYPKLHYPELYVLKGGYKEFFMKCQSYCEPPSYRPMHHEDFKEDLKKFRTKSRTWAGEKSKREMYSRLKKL
UniProt P11049: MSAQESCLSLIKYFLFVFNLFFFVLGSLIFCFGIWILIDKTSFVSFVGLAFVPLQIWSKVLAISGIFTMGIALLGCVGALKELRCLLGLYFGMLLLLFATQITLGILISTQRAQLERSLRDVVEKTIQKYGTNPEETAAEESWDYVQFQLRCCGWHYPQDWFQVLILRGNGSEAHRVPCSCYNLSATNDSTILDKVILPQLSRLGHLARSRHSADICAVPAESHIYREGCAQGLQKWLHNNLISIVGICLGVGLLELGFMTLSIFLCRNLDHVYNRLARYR
UniProt Q9BSQ5: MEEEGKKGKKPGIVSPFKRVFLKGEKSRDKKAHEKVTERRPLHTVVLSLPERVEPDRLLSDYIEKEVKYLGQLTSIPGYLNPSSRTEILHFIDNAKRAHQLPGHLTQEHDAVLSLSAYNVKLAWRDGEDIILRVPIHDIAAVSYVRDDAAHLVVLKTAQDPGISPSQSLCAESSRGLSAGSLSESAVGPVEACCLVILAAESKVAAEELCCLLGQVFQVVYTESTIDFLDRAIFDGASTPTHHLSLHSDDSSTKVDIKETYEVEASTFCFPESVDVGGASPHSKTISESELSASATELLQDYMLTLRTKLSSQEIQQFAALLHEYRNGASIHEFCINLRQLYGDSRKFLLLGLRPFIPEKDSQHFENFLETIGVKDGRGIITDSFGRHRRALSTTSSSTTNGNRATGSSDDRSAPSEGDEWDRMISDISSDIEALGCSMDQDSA
UniProt Q9HC52: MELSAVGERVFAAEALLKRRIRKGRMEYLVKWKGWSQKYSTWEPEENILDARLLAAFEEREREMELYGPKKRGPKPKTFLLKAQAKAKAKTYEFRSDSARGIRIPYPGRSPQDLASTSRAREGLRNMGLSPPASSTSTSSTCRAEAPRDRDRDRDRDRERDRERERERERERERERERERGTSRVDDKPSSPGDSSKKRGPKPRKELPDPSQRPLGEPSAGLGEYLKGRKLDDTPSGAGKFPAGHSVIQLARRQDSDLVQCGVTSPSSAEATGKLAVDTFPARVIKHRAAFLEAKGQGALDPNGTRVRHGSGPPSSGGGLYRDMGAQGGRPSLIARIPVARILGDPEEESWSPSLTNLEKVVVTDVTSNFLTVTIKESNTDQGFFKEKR
UniProt O14936: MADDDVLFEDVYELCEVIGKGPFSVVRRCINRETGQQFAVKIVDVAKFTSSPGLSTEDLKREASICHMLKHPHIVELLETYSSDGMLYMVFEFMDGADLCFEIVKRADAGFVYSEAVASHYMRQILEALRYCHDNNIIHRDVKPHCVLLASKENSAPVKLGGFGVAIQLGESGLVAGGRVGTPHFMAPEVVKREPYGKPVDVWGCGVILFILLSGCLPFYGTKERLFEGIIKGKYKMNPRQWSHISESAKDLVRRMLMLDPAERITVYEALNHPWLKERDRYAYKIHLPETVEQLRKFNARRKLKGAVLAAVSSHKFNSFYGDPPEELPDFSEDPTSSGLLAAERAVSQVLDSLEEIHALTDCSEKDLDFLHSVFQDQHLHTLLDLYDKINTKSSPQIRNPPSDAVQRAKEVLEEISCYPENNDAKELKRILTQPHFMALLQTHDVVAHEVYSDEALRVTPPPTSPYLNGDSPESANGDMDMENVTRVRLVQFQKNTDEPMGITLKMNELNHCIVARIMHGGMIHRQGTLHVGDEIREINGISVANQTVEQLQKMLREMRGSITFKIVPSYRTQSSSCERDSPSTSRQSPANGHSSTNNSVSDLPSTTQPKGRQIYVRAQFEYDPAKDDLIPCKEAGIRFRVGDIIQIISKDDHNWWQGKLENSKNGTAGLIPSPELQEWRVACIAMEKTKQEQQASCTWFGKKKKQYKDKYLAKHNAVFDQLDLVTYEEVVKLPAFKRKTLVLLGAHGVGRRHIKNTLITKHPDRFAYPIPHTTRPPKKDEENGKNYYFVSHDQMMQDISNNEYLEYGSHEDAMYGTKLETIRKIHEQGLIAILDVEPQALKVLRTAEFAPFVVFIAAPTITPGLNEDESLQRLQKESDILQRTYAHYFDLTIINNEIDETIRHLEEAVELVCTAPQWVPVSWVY

Experiments:
Assay in all cases: log2 fold change, soluble protein after heating vs DMSO (PISA); higher = thermal stabilisation; K562 cells, 10 uM, 30 min; active = over 0.2 and 3.5 SD of the protein, either way, in both replicates (recomputed)
[1] = compound: C#Cc1cccc(Nc2ncnc3cc(OCCOC)c(OCCOC)cc23)c1 [erlotinib]
In short: (§1)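 Aliquots of K562 cells (2×10^6 cells/mL) treated with 10 μM compound for 30 min were heated for 3 min over 48°C-58°C. After pooling and extraction in PBS with 0.5% NP-40 at 4°C, soluble protein from a 21,000xg, 90 min spin was quantified by TMTpro 16plex LC-MS/MS with channel sums equalised. Thermal stability is expressed against control samples, from duplicates, as a log2 fold change.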

[2] = compound: C1=CC(=C(C=C1Cl)C2=NC3=NC=CN=C3C(=N2)NC4=CC=NC=C4)F
In short: as §1

[3] = compound: C1=CC(=CC=C1C2=NC3=C(N2)C=C(C=C3)C(=O)N)OC4=CC=C(C=C4)Cl
In short: as §1

[4] = compound: C1=CC2=NC=CN=C2C=C1/C=C/3\C(=O)NC(=O)S3
In short: as §1

[5] = compound: C1=CC=C(C=C1)C2=NC(=C(N2)C3=CC=NC=C3)C4=CC(=C(C=C4)Cl)O
In short: as §1

[6] = compound: C1CCN(C1)C(=O)NC2=CC=CC(=C2)NC3=NC=C(C(=N3)NCCC4=CN=CN4)Br
In short: as §1

[7] = compound: C1CN(CCC1(CC2=CC=C(C=C2)Cl)N)C3=NC=NC4=C3C=CN4
In short: as §1

[8] = compound: C1COCCN1CCN2C3=CC=CC=C3N=C2NC(=O)C4=CC(=CC=C4)[N+](=O)[O-] [IRAK-1-4 Inhibitor I]
In short: as §1

[9] = compound: C=CC(=O)N1CCC[C@@H](n2nc(-c3ccc(Oc4ccccc4)cc3)c3c(N)ncnc32)C1 [ibrutinib]
In short: as §1

[10] = compound: CC(C)(C)Cn1c(N)nc2ccc(-c3[nH]c(C(C)(C)C)nc3-c3ccc(F)cc3)nc21 [ralimetinib]
In short: as §1

[11] = compound: CC(C)(O)CC(=O)NCCn1ccc2ncnc(Nc3ccc(Oc4cccc(C(F)(F)F)c4)c(Cl)c3)c21
In short: as §1

[12] = compound: CC(C)C1=C2N=C(C=C(N2N=C1)NCC3=CC=CC=C3)NCCCCCCN
In short: as §1

[13] = compound: CC(C)C[C@@H](C=O)NC(=O)[C@H](CC(C)C)NC(=O)[C@H](CC(C)C)NC(=O)OCc1ccccc1
In short: as §1

[14] = compound: CC(C)N(C[C@H]1O[C@@H](n2cnc3c(N)ncnc32)[C@H](O)[C@@H]1O)[C@H]1C[C@@H](CCc2nc3cc(C(C)(C)C)ccc3[nH]2)C1 [pinometostat]
In short: as §1

[15] = compound: CC1=C(C2=C(C=C1)C(=O)C3=CC=CC=C3N2CCCN)C
In short: as §1

[16] = compound: CC1=C(C(CC(=O)N1)C2=CC=C(C=C2)C(F)(F)F)C(=O)NC3=C(C=C4C(=C3)C=NN4)F
In short: as §1

[17] = compound: C/C(=N\NC(=O)C1=CC(=CC=C1)S(=O)(=O)N2CCOCC2)/C3=C(C=CC(=C3)Cl)O
In short: as §1

[18] = compound: C1=CC2=C(C=CC(=C2)/C=C\3/C(=O)NC(=NCC4=CC=CS4)S3)N=C1
In short: as §1

[19] = compound: C1=CC=C2C(=C1)C3=NNC4=CC=CC(=C43)C2=O
In short: as §1

[20] = compound: CC(=O)c1cnc2ccc(-c3cc(Cl)c(O)c(Cl)c3)nc2c1N[C@H]1CC[C@H](CN(C)C)CC1
In short: as §1

In the case of CCDC167 (UniProt Q9P0B6), the log2 fold change [1] was inactive: 0.068, the log2 fold change [2] was inactive: 0.008 and the log2 fold change [3] was inactive: -0.041. The log2 fold change [4] was inactive: 0.054, the log2 fold change [5] was inactive: 0.072 and the log2 fold change [6] was inactive: 0.054. For the same target, the log2 fold change [7] was inactive: 0.224, the log2 fold change [8] was inactive: -0.056 and the log2 fold change [9] was inactive: 0.013. For the same target, the log2 fold change [10] was inactive: -0.028, the log2 fold change [11] was inactive: 0.163 and the log2 fold change [12] was inactive: -0.258. For the same target, the log2 fold change [13] was inactive: 0.061, the log2 fold change [14] was inactive: 0.052 and the log2 fold change [15] was inactive: 0.021.

With CD69 (UniProt Q07108) the log2 fold change [2] was inactive: 0.05, the log2 fold change [4] was inactive: 0.085 and the log2 fold change [8] was inactive: 0.027. The log2 fold change [9] was inactive: 0.053, the log2 fold change [11] was inactive: -0.061 and the log2 fold change [14] was inactive: 0.118. The log2 fold change [16] was inactive: -0.143.

CD9 (UniProt P21926) was tested, and the log2 fold change [17] was inactive: -0.063, the log2 fold change [2] was inactive: 0.099 and the log2 fold change [18] was inactive: 0.056. For the same target, the log2 fold change [19] was inactive: -0.303, the log2 fold change [6] was inactive: -0.111 and the log2 fold change [7] was inactive: 0.085. For the same target, the log2 fold change [8] was inactive: -0.072, the log2 fold change [20] was inactive: 0 and the log2 fold change [11] was inactive: 0.059. The log2 fold change [14] was inactive: 0.102 and the log2 fold change [15] was inactive: 0.12.

In the case of CCNL1 (UniProt Q9UK58), the log2 fold change [1] was inactive: -0.001, the log2 fold change [3] was inactive: 0.094 and the log2 fold change [12] was inactive: -0.188.

With CDC37 (UniProt K7EKQ2) the log2 fold change [2] was inactive: 0.227, the log2 fold change [4] was inactive: -0.18 and the log2 fold change [9] was inactive: 0.284. For the same target, the log2 fold change [11] was inactive: -0.256.

CD68 (UniProt P34810) was tested, and the log2 fold change [1] was inactive: -0.13, the log2 fold change [3] was inactive: 0.022 and the log2 fold change [4] was inactive: 0.094. The log2 fold change [9] was inactive: 0.057 and the log2 fold change [12] was active: -0.535.

With CDADC1 (UniProt Q9BWV3) the log2 fold change [8] was inactive: -0.083 and the log2 fold change [14] was inactive: -0.125.

With CASP9 (UniProt P55211) the log2 fold change [17] was inactive: 0.059, the log2 fold change [2] was inactive: -0.016 and the log2 fold change [18] was inactive: -0.049. The log2 fold change [5] was inactive: -0.02, the log2 fold change [19] was inactive: 0.048 and the log2 fold change [6] was inactive: -0.054. For the same target, the log2 fold change [7] was inactive: -0.218, the log2 fold change [8] was inactive: 0.03 and the log2 fold change [20] was inactive: -0.096. For the same target, the log2 fold change [10] was inactive: 0.008, the log2 fold change [11] was inactive: -0.043 and the log2 fold change [13] was inactive: 0.053. For the same target, the log2 fold change [14] was inactive: 0.03 and the log2 fold change [15] was inactive: -0.206.

For CD80 (UniProt P33681), the log2 fold change [1] was inactive: 0.11, the log2 fold change [17] was inactive: -0.062 and the log2 fold change [3] was inactive: 0.001. For the same target, the log2 fold change [18] was inactive: -0.121, the log2 fold change [5] was inactive: 0.035 and the log2 fold change [19] was inactive: -0.007. The log2 fold change [6] was inactive: -0.095, the log2 fold change [7] was inactive: 0.05 and the log2 fold change [20] was inactive: 0.204. For the same target, the log2 fold change [10] was inactive: 0.008, the log2 fold change [12] was inactive: 0.093 and the log2 fold change [13] was inactive: 0.013. For the same target, the log2 fold change [16] was inactive: 0.013 and the log2 fold change [15] was inactive: 0.018.

In the case of CCT6B isoform 3 (UniProt Q92526), the log2 fold change [1] was inactive: 0.364, the log2 fold change [17] was inactive: -0.239 and the log2 fold change [3] was inactive: -0.026. The log2 fold change [18] was inactive: 0.162, the log2 fold change [19] was inactive: -0.005 and the log2 fold change [6] was inactive: -0.033. For the same target, the log2 fold change [7] was inactive: 0.387, the log2 fold change [8] was inactive: 0.388 and the log2 fold change [20] was inactive: 0.014. The log2 fold change [12] was inactive: 0.152, the log2 fold change [14] was inactive: 0.125 and the log2 fold change [15] was inactive: 0.21.

For CD2BP2 (UniProt O95400), the log2 fold change [1] was inactive: 0.105, the log2 fold change [2] was inactive: -0.044 and the log2 fold change [3] was inactive: -0.048. For the same target, the log2 fold change [4] was inactive: 0.124, the log2 fold change [6] was inactive: -0.002 and the log2 fold change [7] was inactive: -0.05. The log2 fold change [8] was inactive: -0.099, the log2 fold change [9] was inactive: 0.033 and the log2 fold change [11] was inactive: 0.149. The log2 fold change [12] was inactive: 0.151, the log2 fold change [14] was inactive: 0.008 and the log2 fold change [15] was inactive: -0.229.

For CCDC71L isoform 2 (UniProt Q8N9Z2), the log2 fold change [1] was inactive: 0.261, the log2 fold change [2] was inactive: 0.05 and the log2 fold change [3] was inactive: -0.028. The log2 fold change [4] was inactive: 0.027, the log2 fold change [6] was inactive: 0.293 and the log2 fold change [7] was inactive: -0.023. For the same target, the log2 fold change [9] was inactive: -0.156, the log2 fold change [11] was inactive: -0.028 and the log2 fold change [12] was inactive: -0.069. The log2 fold change [15] was inactive: 0.042.

In the case of CDC27 (UniProt G5EA36), the log2 fold change [1] was inactive: -0.081, the log2 fold change [2] was inactive: 0.111 and the log2 fold change [3] was inactive: -0.033. The log2 fold change [5] was inactive: -0.073, the log2 fold change [6] was inactive: -0.251 and the log2 fold change [7] was inactive: 0.064. For the same target, the log2 fold change [10] was inactive: 0.142, the log2 fold change [11] was inactive: 0.115 and the log2 fold change [12] was inactive: -0.025. The log2 fold change [13] was inactive: 0.399 and the log2 fold change [15] was inactive: -0.135.

CDC25A (UniProt P30304) was tested, and the log2 fold change [1] was inactive: 0.061, the log2 fold change [2] was inactive: -0.01 and the log2 fold change [3] was inactive: -0.111. For the same target, the log2 fold change [4] was inactive: -0.04, the log2 fold change [8] was inactive: 0.034 and the log2 fold change [9] was inactive: -0.002. The log2 fold change [11] was inactive: 0.035, the log2 fold change [12] was inactive: 0.066 and the log2 fold change [14] was inactive: -0.003. For the same target, the log2 fold change [16] was inactive: 0.027.

For CD37 (UniProt P11049), the log2 fold change [17] was inactive: -0.106, the log2 fold change [18] was inactive: 0.008 and the log2 fold change [19] was inactive: 0.107. The log2 fold change [6] was inactive: -0.083, the log2 fold change [7] was inactive: 0.305 and the log2 fold change [20] was inactive: 0.024. For the same target, the log2 fold change [16] was inactive: -0.049 and the log2 fold change [15] was inactive: -0.003.

In the case of CCM2 isoform 2 (UniProt Q9BSQ5), the log2 fold change [1] was inactive: 0.142, the log2 fold change [2] was inactive: -0.042 and the log2 fold change [3] was inactive: 0.035. The log2 fold change [4] was inactive: 0.083, the log2 fold change [5] was inactive: 0.013 and the log2 fold change [6] was inactive: 0.09. The log2 fold change [7] was inactive: 0.16, the log2 fold change [8] was inactive: 0.027 and the log2 fold change [9] was inactive: -0.004. The log2 fold change [10] was inactive: 0.04, the log2 fold change [11] was inactive: 0.027 and the log2 fold change [12] was inactive: -0.085. The log2 fold change [13] was inactive: 0.009, the log2 fold change [14] was inactive: 0.056 and the log2 fold change [15] was inactive: -0.013.

For CBX8 (UniProt Q9HC52), the log2 fold change [5] was inactive: -0.066, the log2 fold change [10] was inactive: -0.059 and the log2 fold change [13] was inactive: 0.035.

With CASK (UniProt O14936) the log2 fold change [1] was inactive: -0.018, the log2 fold change [17] was inactive: -0.07 and the log2 fold change [3] was inactive: 0.01. The log2 fold change [18] was inactive: 0.038, the log2 fold change [19] was inactive: -0.136 and the log2 fold change [8] was inactive: 0.036. For the same target, the log2 fold change [20] was active: -0.483, the log2 fold change [12] was inactive: 0.177 and the log2 fold change [14] was inactive: 0.081.

In the case of CBX3 (UniProt B8ZZ43), the log2 fold change [4] was inactive: 0.478 and the log2 fold change [9] was inactive: -0.164.
